This note sets out measurements from US20230167177A1.

Positions count from the first letter of the chain named. No constants are given. Whether binding was seen depends on the method and setting. Some binding calls cover weakened binding; strength is not graded here.

In assay [1] the target is cynomolgus CTLA-4 on transfected cells (Macaca fascicularis (cynomolgus monkey)) (UniProt G7PL88). The assay is described as follows: FACS on cynomolgus CTLA4 expressing cell pool.
Assay [2] deals with cynomolgus CTLA-4 ECD protein (in house) (Macaca fascicularis (cynomolgus monkey)) (UniProt G7PL88). The assay is described as follows: ELISA, cyno CTLA4 ECD coated. (An ELISA detects its analyte on a solid surface through an enzyme-linked reagent.)

B1: W3166-z13 (Fc fusion, not shown: a dimerising Fc or GST)
chain: QVQLVESGGGLVQPGGSLRLSCAASGRTFSSYAMGWFRQAPGMEREFVASIRWSDQTTYVPNSVKGRFTISRDNSKNTLYLQMNSLRPEDTAVYYCATGPTRLSFYSGNYRTYDSWGQGTLVTVSS
Turning to B1, the binding result in assay [1] and in assay [2] was “binds” throughout.

B2: W3166-z17 (Fc fusion, not shown: a dimerising Fc or GST)
chain: B1 chain with L11V, M43K
On to B2, for which the binding result in assay [1] and in assay [2] was “binds” throughout.
